Here are results for seven molecules from PMC7694386.

Sequences of proteins named here, by UniProt entry; tags and fusion partners are left off.
UniProt O95817: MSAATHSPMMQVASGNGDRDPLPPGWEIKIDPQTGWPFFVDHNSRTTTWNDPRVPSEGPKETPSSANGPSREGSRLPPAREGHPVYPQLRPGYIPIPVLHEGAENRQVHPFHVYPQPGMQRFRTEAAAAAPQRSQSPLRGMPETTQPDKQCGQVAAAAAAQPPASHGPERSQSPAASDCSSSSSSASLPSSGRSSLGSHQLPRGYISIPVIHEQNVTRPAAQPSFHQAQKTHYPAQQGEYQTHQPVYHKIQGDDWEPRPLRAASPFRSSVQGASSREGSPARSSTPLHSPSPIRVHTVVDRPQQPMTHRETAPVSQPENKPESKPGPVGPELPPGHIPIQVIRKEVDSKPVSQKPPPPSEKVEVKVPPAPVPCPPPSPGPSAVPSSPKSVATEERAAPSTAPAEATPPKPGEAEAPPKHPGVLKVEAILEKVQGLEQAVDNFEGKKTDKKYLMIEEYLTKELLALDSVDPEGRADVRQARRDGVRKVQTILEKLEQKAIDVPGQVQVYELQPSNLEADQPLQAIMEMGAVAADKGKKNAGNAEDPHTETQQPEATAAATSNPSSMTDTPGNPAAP

These are yes or no findings as the source states them, for the method shown. Binding seen in cells or lysates may run through a third protein. Here binding means that the protein was enriched with, or labelled near, the bait; the list need not be complete.

For this assay, the target named is BAG3 (BCL-2-associated athanogene 3) (human (endogenous in HEK293T)) (UniProt O95817). The assay is described as follows: affinity purification with mass spectrometry; endogenous BAG3 immunoprecipitated with anti-BAG3 antibody and Protein A/G magnetic beads from HEK293T lysate; cells treated with DMSO (basal) or 10 µM MG132 for 6 h; IgG IP (MG132_IgG) as control; label-free quantification, three biological replicates.

B1: BTB/POZ domain-containing protein KCTD15 (protein, UniProt Q96SI1 1-283)
chain: MPHRKERPSGSSLHTHGSTGTAEGGNMSRLSLTRSPVSPLAAQGIPLPAQLTKSNAPVHIDVGGHMYTSSLATLTKYPDSRISRLFNGTEPIVLDSLKQHYFIDRDGEIFRYVLSFLRTSKLLLPDDFKDFSLLYEEARYYQLQPMVRELERWQQEQEQRRRSRACDCLVVRVTPDLGERIALSGEKALIEEVFPETGDVMCNSVNAGWNQDPTHVIRFPLNGYCRLNSVQVLERLFQRGFSVAASCGGGVDSSQFSEYVLCREERRPQPTPTAVRIKQEPLD
For the molecule B1, the binding entry is on record as “binds”.

B2: Ribosomal RNA processing protein 1 homolog A (protein, UniProt P56182 1-461)
chain: MVSRVQLPPEIQLAQRLAGNEQVTRDRAVRKLRKYIVARTQRAAGGFTHDELLKVWKGLFYCMWMQDKPLLQEELGRTISQLVHAFQTTEAQHLFLQAFWQTMNREWTGIDRLRLDKFYMLMRMVLNESLKVLKMQGWEERQIEELLELLMTEILHPSSQAPNGVKSHFIEIFLEELTKVGAEELTADQNLKFIDPFCRIAARTKDSLVLNNITRGIFETIVEQAPLAIEDLLNELDTQDEEVASDSDESSEGGERGDALSQKRSEKPPAGSICRAEPEAGEEQAGDDRDSGGPVLQFDYEAVANRLFEMASRQSTPSQNRKRLYKVIRKLQDLAGGIFPEDEIPEKACRRLLEGRRQKKTKKQKRLLRLQQERGKGEKEPPSPGMERKRSRRRGVGADPEARAEAGEQPGTAERALLRDQPRGRGQRGARQRRRTPRPLTSARAKAANVQEPEKKKKRRE
As for B2, the binding entry was “binds”.

B3: U3 small nucleolar RNA-interacting protein 2 (protein, UniProt O43818 1-475)
chain: MSATAAARKRGKPASGAGAGAGAGKRRRKADSAGDRGKSKGGGKMNEEISSDSESESLAPRKPEEEEEEELEETAQEKKLRLAKLYLEQLRQQEEEKAEARAFEEDQVAGRLKEDVLEQRGRLQKLVAKEIQAPASADIRVLRGHQLSITCLVVTPDDSAIFSAAKDCSIIKWSVESGRKLHVIPRAKKGAEGKPPGHSSHVLCMAISSDGKYLASGDRSKLILIWEAQSCQHLYTFTGHRDAVSGLAFRRGTHQLYSTSHDRSVKVWNVAENSYVETLFGHQDAVAALDALSRECCVTAGGRDGTVRVWKIPEESQLVFYGHQGSIDCIHLINEEHMVSGADDGSVALWGLSKKRPLALQREAHGLRGEPGLEQPFWISSVAALLNTDLVATGSHSSCVRLWQCGEGFRQLDLLCDIPLVGFINSLKFSSSGDFLVAGVGQEHRLGRWWRIKEARNSVCIIPLRRVPVPPAAGS
Take B3: the binding result is “binds”.

B4: Protein SCAF11 (protein, UniProt Q99590 1-1463)
chain: MKKKTVCTLNMGDKKYEDMEGEENGDNTISTGLLYSEADRCPICLNCLLEKEVGFPESCNHVFCMTCILKWAETLASCPIDRKPFQAVFKFSALEGYVKVQVKKQLRETKDKKNENSFEKQVSCHENSKSCIRRKAIVREDLLSAKVCDLKWIHRNSLYSETGGKKNAAIKINKPQRSNWSTNQCFRNFFSNMFSSVSHSGESSFTYRAYCTEFIEASEISALIRQKRHELELSWFPDTLPGIGRIGFIPWNVETEVLPLISSVLPRTIFPTSTISFEHFGTSCKGYALAHTQEGEEKKQTSGTSNTRGSRRKPAMTTPTRRSTRNTRAETASQSQRSPISDNSGCDAPGNSNPSLSVPSSAESEKQTRQAPKRKSVRRGRKPPLLKKKLRSSVAAPEKSSSNDSVDEETAESDTSPVLEKEHQPDVDSSNICTVQTHVENQSANCLKSCNEQIEESEKHTANYDTEERVGSSSSESCAQDLPVLVGEEGEVKKLENTGIEANVLCLESEISENILEKGGDPLEKQDQISGLSQSEVKTDVCTVHLPNDFPTCLTSESKVYQPVSCPLSDLSENVESVVNEEKITESSLVEITEHKDFTLKTEELIESPKLESSEGEIIQTVDRQSVKSPEVQLLGHVETEDVEIIATCDTFGNEDFNNIQDSENNLLKNNLLNTKLEKSLEEKNESLTEHPRSTELPKTHIEQIQKHFSEDNNEMIPMECDSFCSDQNESEVEPSVNADLKQMNENSVTHCSENNMPSSDLADEKVETVSQPSESPKDTIDKTKKPRTRRSRFHSPSTTWSPNKDTPQEKKRPQSPSPRRETGKESRKSQSPSPKNESARGRKKSRSQSPKKDIARERRQSQSRSPKRDTTRESRRSESLSPRRETSRENKRSQPRVKDSSPGEKSRSQSRERESDRDGQRRERERRTRKWSRSRSHSRSPSRCRTKSKSSSFGRIDRDSYSPRWKGRWANDGWRCPRGNDRYRKNDPEKQNENTRKEKNDIHLDADDPNSADKHRNDCPNWITEKINSGPDPRTRNPEKLKESHWEENRNENSGNSWNKNFGSGWVSNRGRGRGNRGRGTYRSSFAYKDQNENRWQNRKPLSGNSNSSGSESFKFVEQQSYKRKSEQEFSFDTPADRSGWTSASSWAVRKTLPADVQNYYSRRGRNSSGPQSGWMKQEEETSGQDSSLKDQTNQQVDGSQLPINMMQPQMNVMQQQMNAQHQPMNIFPYPVGVHAPLMNIQRNPFNIHPQLPLHLHTGVPLMQVATPTSVSQGLPPPPPPPPPSQQVNYIASQPDGKQLQGIPSSSHVSNNMSTPVLPAPTAAPGNTGMVQGPSSGNTSSSSHSKASNAAVKLAESKVSVAVEASADSSKTDKKLQIQEKAAQEVKLAIKPFYQNKDITKEEYKEIVRKAVDKVCHSKSGEVNSTKVANLVKAYVDKYKYSRKGSQKKTLEEPVSTEKNIG
Turning to B4, the binding result is “binds”.

B5: Hyaluronan mediated motility receptor (protein, UniProt O75330 1-724)
chain: MSFPKAPLKRFNDPSGCAPSPGAYDVKTLEVLKGPVSFQKSQRFKQQKESKQNLNVDKDTTLPASARKVKSSESKESQKNDKDLKILEKEIRVLLQERGAQDRRIQDLETELEKMEARLNAALREKTSLSANNATLEKQLIELTRTNELLKSKFSENGNQKNLRILSLELMKLRNKRETKMRGMMAKQEGMEMKLQVTQRSLEESQGKIAQLEGKLVSIEKEKIDEKSETEKLLEYIEEISCASDQVEKYKLDIAQLEENLKEKNDEILSLKQSLEENIVILSKQVEDLNVKCQLLEKEKEDHVNRNREHNENLNAEMQNLKQKFILEQQEREKLQQKELQIDSLLQQEKELSSSLHQKLCSFQEEMVKEKNLFEEELKQTLDELDKLQQKEEQAERLVKQLEEEAKSRAEELKLLEEKLKGKEAELEKSSAAHTQATLLLQEKYDSMVQSLEDVTAQFESYKALTASEIEDLKLENSSLQEKAAKAGKNAEDVQHQILATESSNQEYVRMLLDLQTKSALKETEIKEITVSFLQKITDLQNQLKQQEEDFRKQLEDEEGRKAEKENTTAELTEEINKWRLLYEELYNKTKPFQLQLDAFEVEKQALLNEHGAAQEQLNKIRDSYAKLLGHQNLKQKIKHVVKLKDENSQLKSEVSKLRCQLAKKKQSETKLQEELNKVLGIKHFDPSKAFHHESKENFALKTPLKEGNTNCYRAPMECQESWK
For B5, the binding entry is reported as “binds”.

B6: Probable ATP-dependent RNA helicase DDX47 (protein, UniProt Q9H0S4 1-455)
chain: MAAPEEHDSPTEASQPIVEEEETKTFKDLGVTDVLCEACDQLGWTKPTKIQIEAIPLALQGRDIIGLAETGSGKTGAFALPILNALLETPQRLFALVLTPTRELAFQISEQFEALGSSIGVQSAVIVGGIDSMSQSLALAKKPHIIIATPGRLIDHLENTKGFNLRALKYLVMDEADRILNMDFETEVDKILKVIPRDRKTFLFSATMTKKVQKLQRAALKNPVKCAVSSKYQTVEKLQQYYIFIPSKFKDTYLVYILNELAGNSFMIFCSTCNNTQRTALLLRNLGFTAIPLHGQMSQSKRLGSLNKFKAKARSILLATDVASRGLDIPHVDVVVNFDIPTHSKDYIHRVGRTARAGRSGKAITFVTQYDVELFQRIEHLIGKKLPGFPTQDDEVMMLTERVAEAQRFARMELREHGEKKKRSREDAGDNDDTEGAIGVRNKVAGGKMKKRKGR
For B6, the binding result was “binds”.

B7: Protein HGH1 homolog (protein, UniProt Q9BTY7 1-390)
chain: MGEAGAGAGASGGPEASPEAEVVKLLPFLAPGARADLQAAAVRHVLALTGCGPGRALLAGQAALLQALMELAPASAPARDAARALVNLAADPGLHETLLAADPGLPARLMGRALDPQWPWAEEAAAALANLSREPAPCAALMAALAAAEPADSGLERLVRALCTPGYNARAPLHYLAPLLSNLSQRPAARAFLLDPDRCVVQRLLPLTQYPDSSVRRGGVVGTLRNCCFEHRHHEWLLGPEVDILPFLLLPLAGPEDFSEEEMERLPVDLQYLPPDKQREPDADIRKMLVEAIMLLTATAPGRQQVRDQGAYLILRELHSWEPEPDVRTACEKLIQVLIGDEPERGMENLLEVQVPEDVEQQLQQLDCREQEQLERELAPEPWVERATPT
In the case of B7, the binding result was “binds”.
